Source: patent publication US20200085912A1
No constants are given. Whether binding was seen depends on the method and setting. For part of these data: In cells and extracts the contact can be indirect. Some results given as binding are weak or reduced against the parent protein; the word gives no strength.

By UniProt entry, the sequences of proteins in these tests, tags left out. Residues count along the entry.
UniProt P50284, residues 31-415: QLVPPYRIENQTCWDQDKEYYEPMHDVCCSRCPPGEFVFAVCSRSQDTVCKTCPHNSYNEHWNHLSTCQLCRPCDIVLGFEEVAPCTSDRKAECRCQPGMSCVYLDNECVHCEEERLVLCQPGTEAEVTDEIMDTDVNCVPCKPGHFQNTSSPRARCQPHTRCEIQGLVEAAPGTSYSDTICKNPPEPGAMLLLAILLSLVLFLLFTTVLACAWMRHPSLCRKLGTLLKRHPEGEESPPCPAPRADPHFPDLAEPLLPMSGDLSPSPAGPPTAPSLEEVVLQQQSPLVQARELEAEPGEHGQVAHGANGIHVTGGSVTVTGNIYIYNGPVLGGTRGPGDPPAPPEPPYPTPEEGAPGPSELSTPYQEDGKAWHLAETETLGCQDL

Experiments:
[1] = target: LTβ receptor (LTβR) (mouse) (UniProt P50284); experiment: biochemical analyses of LEC (FIG. 1 and FIG. 3)
[2] = target: LTβ receptor (LTβR) (mouse) (UniProt P50284); experiment: co-IP with anti-LTβR from unstimulated LEC lysates, anti-TRAF3 immunoblot
[3] = target: LTβ receptor (LTβR) (mouse) (UniProt P50284); experiment: model legend referring to co-IP / blots of FIG. 3B, 3C, 3E
[4] = target: LTβ receptor (LTβR) (mouse) (UniProt P50284); experiment: co-IP of LTβR complex from LEC
[5] = target: LTβ receptor (LTβR) (mouse) (UniProt P50284); experiment: co-IP with anti-LTβR from LEC lysates, anti-TRAF3 immunoblot
[6] = target: LTβ receptor (LTβR) (mouse) (UniProt P50284); experiment: co-IP with anti-LTβR from lysates of anti-LTβR mAb-stimulated LEC, anti-TRAF2 immunoblot
[7] = target: LTβ receptor (LTβR) (mouse) (UniProt P50284); experiment: co-IP of LTβR complex from LTβR-stimulated LEC
[8] = target: LTβ receptor (LTβR) (mouse) (UniProt P50284); experiment: model legend referring to the filing's blots

Measured: binding

B1: TNF receptor-associated factor-3 (TRAF3) (protein, mouse, UniProt Q60803 1-567, looked up)
chain: MESSKKMDAAGTLQPNPPLKLQPDRGAGSVLVPEQGGYKEKFVKTVEDKYKCEKCRLVLCNPKQTECGHRFCESCMAALLSSSSPKCTACQESIIKDKVFKDNCCKREILALQVYCRNEGRGCAEQLTLGHLLVHLKNECQFEELPCLRADCKEKVLRKDLRDHVEKACKYREATCSHCKSQVPMIKLQKHEDTDCPCVVVSCPHKCSVQTLLRSELSAHLSECVNAPSTCSFKRYGCVFQGTNQQIKAHEASSAVQHVNLLKEWSNSLEKKVSLLQNESVEKNKSIQSLHNQICSFEIEIERQKEMLRNNESKILHLQRVIDSQAEKLKELDKEIRPFRQNWEEADSMKSSVESLQNRVTELESVDKSAGQAARNTGLLESQLSRHDQMLSVHDIRLADMDLRFQVLETASYNGVLIWKIRDYKRRKQEAVMGKTLSLYSQPFYTGYFGYKMCARVYLNGDGMGKGTHLSLFFVIMRGEYDALLPWPFKQKVTLMLMDQGSSRRHLGDAFKPDPNSSSFKKPTGEMNIASGCPVFVAQTVLENGTYIKDDTIFIKVIVDTSDLPDP
binds: [1] | [2] | [3] | [4] | [5]

B2: TNF receptor-associated factor 2 (TRAF2) (protein, mouse, UniProt P39429 2-501, looked up)
chain: AAASVTSPGSLELLQPGFSKTLLGTRLEAKYLCSACKNILRRPFQAQCGHRYCSFCLTSILSSGPQNCAACVYEGLYEEGISILESSSAFPDNAARREVESLPAVCPNDGCTWKGTLKEYESCHEGLCPFLLTECPACKGLVRLSEKEHHTEQECPKRSLSCQHCRAPCSHVDLEVHYEVCPKFPLTCDGCGKKKIPRETFQDHVRACSKCRVLCRFHTVGCSEMVETENLQDHELQRLREHLALLLSSFLEAQASPGTLNQVGPELLQRCQILEQKIATFENIVCVLNREVERVAVTAEACSRQHRLDQDKIEALSNKVQQLERSIGLKDLAMADLEQKVSELEVSTYDGVFIWKISDFTRKRQEAVAGRTPAIFSPAFYTSRYGYKMCLRVYLNGDGTGRGTHLSLFFVVMKGPNDALLQWPFNQKVTLMLLDHNNREHVIDAFRPDVTSSSFQRPVSDMNIASGCPLFCPVSKMEAKNSYVRDDAIFIKAIVDLTGL
binds: [1] | [6] | [7] | [8]
